According to PubChem BioAssay AID1487 (National Center for Advancing Translational Sciences (NCATS), 2009):
The other results are listed elsewhere or left out. Further columns of the screen follow, without active or inactive calls. The list favours compounds with an active or inconclusive main result. The note in brackets gives the kind of curve behind each potency; many fits are weak.

Assay: qHTS Assay for Modulators of Lamin A Splicing
Conditions: HeLa LMNA splicing GFP/RFP minigene ratio, 48 h
Method in brief: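 S3 HeLa stable clones carrying a lamin A-EGFP splicing minigene plus DsRed2 were seeded at 600 cells/well in Opti-MEM with 2% FBS, pin-dosed and incubated 48 h at 37°C. Acumen cytometry (488 nm) gave the GFP/RFP total-intensity ratio.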

[1] = measured here: GFP splicing reporter channel
[2] = measured here: RFP viability control channel

Row | SMILES | AC50 [1] | AC50 [2]
1 | Cc1nnc(SCCN2CCOCC2)c2nn(-c3ccccc3F)c(C)c12 | 0.0224 µM [rising, full curve, poor fit] | –
2 | CC(C)c1ccc(C2NC(=S)NC3=C2C(=O)CC(C)(C)C3)cc1 (centres undefined) | – | 35.5 µM [rising, single point]
3 | Clc1ccc2[nH]c3c(NCC4CCCO4)ncnc3c2c1 (centres undefined) | – | 14.1 µM [rising, partial curve]
4 | Nc1ccc2c(c1)C/C(=C/c1ccco1)C2=O | 7.08 µM [rising, partial curve] | –
5 | Cc1ccc(-c2nnc(SCC(=O)NC(C)(C)C)nc2-c2ccc(C)cc2)cc1 | 15.8 µM [falling, partial curve, poor fit] | –
6 | Nc1nc(SCn2nnc3ccccc3c2=O)n[nH]1 | 5.01 µM [falling, partial curve, poor fit] | 7.08 µM [falling, partial curve, poor fit]
7 | Cc1ccc(-n2c(SCC(=O)Nc3cccc(S(N)(=O)=O)c3)nc3ccccc32)cc1 | – | 11.2 µM [rising, partial curve]
8 | Cn1sc(=O)c2cc(S(=O)(=O)NC3CC3)ccc21 | 4.47 µM [falling, full curve, poor fit] | –
9 | Cc1ccc(C(=O)N/C(=C\c2ccccc2)C(=O)OCc2ccccc2)cc1 | – | 15.8 µM [rising, partial curve]
10 | C=CCn1c(N)c(C(=O)OC(C)CC)c2nc3ccccc3nc21 (centres undefined) | 14.1 µM [rising, single point] | 10 µM [rising, partial curve]
11 | COc1ccc2nc(SCC(=O)NC3CCCc4ccccc43)[nH]c2c1 (centres undefined) | – | 22.4 µM [rising, single point]
12 | O=C(Cn1cnc2ccccc21)N1CCN(S(=O)(=O)c2ccccc2)CC1 | – | 0.708 µM [rising, full curve, poor fit]
13 | C/C(=N\NC(=O)c1cccc(F)c1)c1ccc(Br)s1 | 35.5 µM [falling, single point] | 35.5 µM [falling, single point]
14 | COc1ccc2nc(N(Cc3cccnc3)C(=O)C3COc4ccccc4O3)sc2c1 (centres undefined) | 0.0141 µM [rising, full curve, poor fit] | –
15 | CC1=CC2=NC(=O)/C(=C\c3cccn3CCOc3cc(C)ccc3C)C(=N)N2O1 | – | 1.26 µM [rising, partial curve, poor fit]
16 | COc1ccc(N2CCN(S(=O)(=O)CCNC(=O)C3CC(=O)N(c4ccccc4)C3)CC2)cc1 (centres undefined) | 0.0112 µM [falling, full curve, poor fit] | –

From no. 6 as far as 7, copied from above:
Row | SMILES | AC50 [1] | AC50 [2]
6 | Nc1nc(SCn2nnc3ccccc3c2=O)n[nH]1 | 5.01 µM [falling, partial curve, poor fit] | 7.08 µM [falling, partial curve, poor fit]
7 | Cc1ccc(-n2c(SCC(=O)Nc3cccc(S(N)(=O)=O)c3)nc3ccccc32)cc1 | – | 11.2 µM [rising, partial curve]
